# Measurements reported in PubChem BioAssay AID540276 (National Center for Advancing Translational Sciences (NCATS), 2011).
# About 5,400 (1.8%) of roughly 300,000 compounds were called active. Inconclusive results, whose numbers are uncertain, are shown with a selection of clear calls. Calls follow the shape of the full dose curve; tested in HEK293 cells. Potencies of inconclusive entries are doubtful fits and often do not repeat.
# Assay: qHTS for inhibitors of binding or entry into cells for Marburg Virus
# Settings: Marburg virus pseudotyped entry inhibition, cell reporter; activity change, negative = inhibition: at 37.8 µM (top of the series) unless noted
# % is scaled to controls: 0 for no effect and ±100 for the full control effect; potency is read from the fitted curve at half-maximal effect.
Structure (SMILES),Potency,"activity change, negative = inhibition"
Cc1cccc(NC(=O)Cn2cc([N+](=O)[O-])cn2)n1,"inconclusive: 11.2 µM [activator, partial curve]",–
O=C(CSc1ncn(-c2ccccc2)n1)Nc1ccc2c(c1)OCO2,"inconclusive: 3.66 µM [inhibitor, single point]",–
Cc1cc(N(CCO)CCO)ccc1C(c1ccc(N(CCO)CCO)cc1C)c1ccccc1Cl,"inconclusive: 35.5 µM [inhibitor, single point]",–
CCCN1CCc2c(sc(NC(=O)CCS(=O)(=O)c3ccccc3)c2C(=O)OC)C1,"inconclusive: 25.1 µM [inhibitor, partial curve, poor fit]",–
O=C(OCc1ccccc1)C1=NNC2C(=O)N(c3ccc(Br)cc3)C(=O)C12 (configuration not stated),"inconclusive: 6.31 µM [activator, single point]",–
Nc1ccc(C(=O)OCc2nc3cc4ccccc4cc3[nH]2)cc1,active: 1.64 µM,–
O=C(OCc1cn([C@H]2CN(CC3CCCCC3)[C@@H](c3ccccc3)C[C@H]2O)nn1)c1ccccc1,"inconclusive: 0.0028 µM [inhibitor, full curve, poor fit]",–
CCOc1ccc2[nH]c3c(N4CCN(C(=O)c5ccco5)CC4)ncnc3c2c1,"inconclusive: 12.6 µM [inhibitor, partial curve, poor fit]",–
CCc1ccc(NC(=O)Cn2c(=O)n(Cc3ccc(C)cc3)c(=O)c3cccnc32)cc1,–,inactive: 3.89% [at 46.1 µM]
CCOC(=O)c1cnn(-c2cccc(Cl)c2)c1N,"inconclusive: 20.6 µM [activator, single point]",–
Cc1ccc(C2=NN(C(=O)c3cccs3)C(c3ccccc3O)C2)cc1 (configuration not stated),"inconclusive: 3.98 µM [activator, partial curve]",–
COc1ccc(C(=O)Nc2cccc(OCc3cc(=O)n4c5c(sc4n3)CCCC5)c2)cc1OC,–,inactive: 10.8% [at 46.1 µM]
COc1cc(C(=O)OCc2cc(=O)n3ccsc3n2)ccc1OC(C)C,"inconclusive: 10 µM [inhibitor, partial curve, poor fit]",–
COc1ccc(C(=O)NNC(=O)c2ccccc2[N+](=O)[O-])cc1,"inconclusive: 20.6 µM [activator, partial curve]",–
O=C(NNc1cc(N2CCOCC2)nc(N2CCOCC2)n1)C12CC3CC(CC(C3)C1)C2,–,inactive: -1.28%
CCNc1nc(Cl)nc(NNC(=O)C(C)Oc2ccccc2)n1 (configuration not stated),"inconclusive: 2.51 µM [activator, partial curve, poor fit]",–
COc1ccc(C(C(=O)Nc2ccc(C(C)C)cc2)N(C)C(=O)c2ccc(=O)[nH]c2)cc1 (configuration not stated),"inconclusive: 2.82 µM [activator, partial curve, poor fit]",–

# Exported with tabs: entries from further up
Structure (SMILES)	Potency	activity change, negative = inhibition
CCc1ccc(NC(=O)Cn2c(=O)n(Cc3ccc(C)cc3)c(=O)c3cccnc32)cc1	–	inactive: 3.89% [at 46.1 µM]
COc1ccc(C(=O)NNC(=O)c2ccccc2[N+](=O)[O-])cc1	inconclusive: 20.6 µM [activator, partial curve]	–
